Data as given in US9999690B2, “Labeled compounds and methods of imaging, diagnosing cartilage disorders and diseases, and monitoring cartilage health using labeled and unlabeled compounds” (Perosphere Inc., priority 2013, dated 2018).
Further values from the same series stand in other lists.

Experiment: Tissue distribution of radioactivity by Quantitative Whole-Body Autoradiography (QWBA), Group 4
Assay type: in vivo
Details: rat, single IV 2 mg/kg
Method: A study was conducted to determine the pharmacokinetics, rates and routes of excretion with mass baseline and tissue distribution of radioactivity, after a single intravenous dose administration of formula XIII (also referred to as [^14C]DAP) was administered to the rats by tail vein intravenous injection at a
The study was conducted on 19 male rats divided into 4 groups. The first group of 6 rats was used for blood collection (Group 1); the second group of 4 rats was used for urine, feces, cage rinses and wipes and carcasses collection (Group 2); the third group of 4 rats was used for expired air collection (Group 3); the fourth group of 5 rats was used for terminal blood/serum and tissue distribution by Quantitative Whole-Body Autoradiography (QWBA) (Group 4).
For Group 4, formula XIII (QWBA was run at 1, 8, 12, 24 and 72 hours post dose. After terminal blood collection, each euthanized animal was frozen in a hexane/dry ice bath and embedded in a 2% carboxymethylcellulose matrix according to MPI Research SOP ADME-112. The embedded carcasses were sectioned according to MPI Research SOP ADME-113 on a Leica CM3600 Cyromacrotome set to maintain −10 to −30° C. At least four fortified quality control standards of known radioactive concentration were placed into the frozen block prior to sectioning and used for section thickness quality control. The quality control standards were sectioned under the same conditions as the specimen. The intrasection and intersection variation of collected sections were determined by analyzing the quality control standards. Section variation must be less than 20% for quantitative analysis. Sections that were approximately 40μm thick were taken in the sagittal plane. Appropriate sections selected at various levels of interest in the block were collected to encompass the following tissues, organs, and biological fluids, where possible: adrenal gland, bladder (urinary) and contents (urine), blood (cardiac), bone, bone marrow, brain, eye, fat (brown), fat (white), heart, kidney, large intestine/cecum and contents, liver, lung, muscle, pancreas, prostate, salivary glands, skin, small intestine and contents, spleen, stomach and contents, testes, thymus, thyroid, mesenteric lymph nodes, and epididymis. A set of sections were mounted, exposed to phosphor imaging screens and scanned using the Storm 860 image acquisition system according to MPI Research SOP ADME-112. Quantification, relative to the calibration standards, were performed by image densitometry using MCID™ image analysis software according to MPI Research SOP ADME-114. A standard curve was constructed from the integrated response (MDC/mm2) and the nominal concentrations of the [^14C]Glucose calibration standards. Relative error should be less than 0.5 for each point on the curve. The concentrations of radioactivity were expressed as μCi/g and were converted to μg or ng-equivalents of DAP per gram of sample (μg- or ng-eq/g) using the specific activity of administered [^14C]DAP dose formulation. A lower limit of quantification (LLOQ) was applied to the data. The LLOQ was determined using the radioactive concentration of the lowest calibration standard used to generate a calibration curve divided by the specific activity of the dose formulation (μCi/ug). Artifacts, such as those produced by dislodged contents of the alimentary canal, were excluded from analysis during image analysis.

SMILES: [2H]C1([2H])N(CCCNC(=O)[C@@H](N)CCCNC(=N)N)C([2H])([2H])C([2H])([2H])N(CCCNC(=O)[C@@H](N)CCCNC(=N)N)C1([2H])[2H] [formula XIII]
- Concentration of Radioactivity in Esophagus (12 Hours): 1288 ng Equivalents [^14C]DAP/g
- Concentration of Radioactivity in Exorbital gland (12 Hours): 1733 ng Equivalents [^14C]DAP/g
- Concentration of Radioactivity in Eye (lens) (12 Hours): 176 ng Equivalents [^14C]DAP/g
- Concentration of Radioactivity in Fat (brown) (12 Hours): 1689 ng Equivalents [^14C]DAP/g
- Concentration of Radioactivity in Fat (white) (12 Hours): 494 ng Equivalents [^14C]DAP/g
- Concentration of Radioactivity in Harderian gland (12 Hours): 1004 ng Equivalents [^14C]DAP/g
- Concentration of Radioactivity in Intraorbital gland (12 Hours): 1632 ng Equivalents [^14C]DAP/g
- Concentration of Radioactivity in Large intestine (12 Hours): 3594 ng Equivalents [^14C]DAP/g
- Concentration of Radioactivity in Lung (12 Hours): 1534 ng Equivalents [^14C]DAP/g
- Concentration of Radioactivity in Lymph nodes (12 Hours): 2743 ng Equivalents [^14C]DAP/g
- Concentration of Radioactivity in Muscle (12 Hours): 341 ng Equivalents [^14C]DAP/g
- Concentration of Radioactivity in Myocardium (12 Hours): 912 ng Equivalents [^14C]DAP/g
- Concentration of Radioactivity in Nasal turbinates (12 Hours): 3378 ng Equivalents [^14C]DAP/g
- Concentration of Radioactivity in Olfactory lobe (12 Hours): 435 ng Equivalents [^14C]DAP/g
- Concentration of Radioactivity in Pancreas (12 Hours): 3058 ng Equivalents [^14C]DAP/g
- Concentration of Radioactivity in Pituitary gland (12 Hours): 2155 ng Equivalents [^14C]DAP/g
- Concentration of Radioactivity in Preputial gland (12 Hours): 1611 ng Equivalents [^14C]DAP/g
- Concentration of Radioactivity in Prostate gland (12 Hours): 9639 ng Equivalents [^14C]DAP/g
- Concentration of Radioactivity in Salivary gland (12 Hours): 2710 ng Equivalents [^14C]DAP/g
- Concentration of Radioactivity in Seminal vesicles (12 Hours): 283 ng Equivalents [^14C]DAP/g
- Concentration of Radioactivity in Skin (12 Hours): 1982 ng Equivalents [^14C]DAP/g
- Concentration of Radioactivity in Small intestinal contents (12 Hours): 1305 ng Equivalents [^14C]DAP/g
- Concentration of Radioactivity in Spleen (12 Hours): 1793 ng Equivalents [^14C]DAP/g
- Concentration of Radioactivity in Stomach (12 Hours): 1015 ng Equivalents [^14C]DAP/g
- Concentration of Radioactivity in Testes (12 Hours): 415 ng Equivalents [^14C]DAP/g
- Concentration of Radioactivity in Thyroid gland (12 Hours): 2667 ng Equivalents [^14C]DAP/g
- Concentration of Radioactivity in Vitreous humor (12 Hours): 261 ng Equivalents [^14C]DAP/g
- Concentration of Radioactivity in Adrenal gland (24 Hours): 564 ng Equivalents [^14C]DAP/g
- Concentration of Radioactivity in Blood (24 Hours): 209 ng Equivalents [^14C]DAP/g
- Concentration of Radioactivity in Bone (24 Hours): 506 ng Equivalents [^14C]DAP/g
- Concentration of Radioactivity in Bulbourethral gland (24 Hours): 535 ng Equivalents [^14C]DAP/g
- Concentration of Radioactivity in Cecum (24 Hours): 1256 ng Equivalents [^14C]DAP/g
- Concentration of Radioactivity in Cecum contents (24 Hours): 814 ng Equivalents [^14C]DAP/g
- Concentration of Radioactivity in Cerebellum (24 Hours): 298 ng Equivalents [^14C]DAP/g
- Concentration of Radioactivity in Cerebrum (24 Hours): 397 ng Equivalents [^14C]DAP/g
- Concentration of Radioactivity in Diaphragm (24 Hours): 448 ng Equivalents [^14C]DAP/g
- Concentration of Radioactivity in Epididymis (24 Hours): 722 ng Equivalents [^14C]DAP/g
- Concentration of Radioactivity in Esophageal contents (24 Hours): 196 ng Equivalents [^14C]DAP/g
- Concentration of Radioactivity in Esophagus (24 Hours): 822 ng Equivalents [^14C]DAP/g
- Concentration of Radioactivity in Exorbital gland (24 Hours): 931 ng Equivalents [^14C]DAP/g
- Concentration of Radioactivity in Fat (brown) (24 Hours): 1441 ng Equivalents [^14C]DAP/g
- Concentration of Radioactivity in Fat (white) (24 Hours): 527 ng Equivalents [^14C]DAP/g
- Concentration of Radioactivity in Harderian gland (24 Hours): 897 ng Equivalents [^14C]DAP/g
- Concentration of Radioactivity in Intraorbital gland (24 Hours): 1059 ng Equivalents [^14C]DAP/g
- Concentration of Radioactivity in Large intestine (24 Hours): 2068 ng Equivalents [^14C]DAP/g
- Concentration of Radioactivity in Liver (24 Hours): 2049 ng Equivalents [^14C]DAP/g
- Concentration of Radioactivity in Lung (24 Hours): 1087 ng Equivalents [^14C]DAP/g
- Concentration of Radioactivity in Lymph nodes (24 Hours): 1348 ng Equivalents [^14C]DAP/g
- Concentration of Radioactivity in Medulla (24 Hours): 200 ng Equivalents [^14C]DAP/g
- Concentration of Radioactivity in Muscle (24 Hours): 279 ng Equivalents [^14C]DAP/g
- Concentration of Radioactivity in Myocardium (24 Hours): 538 ng Equivalents [^14C]DAP/g
- Concentration of Radioactivity in Nasal turbinates (24 Hours): 2635 ng Equivalents [^14C]DAP/g
- Concentration of Radioactivity in Olfactory lobe (24 Hours): 614 ng Equivalents [^14C]DAP/g
- Concentration of Radioactivity in Pancreas (24 Hours): 1702 ng Equivalents [^14C]DAP/g
- Concentration of Radioactivity in Pituitary gland (24 Hours): 1463 ng Equivalents [^14C]DAP/g
- Concentration of Radioactivity in Preputial gland (24 Hours): 927 ng Equivalents [^14C]DAP/g
- Concentration of Radioactivity in Prostate gland (24 Hours): 5272 ng Equivalents [^14C]DAP/g
- Concentration of Radioactivity in Salivary gland (24 Hours): 1447 ng Equivalents [^14C]DAP/g
- Concentration of Radioactivity in Seminal vesicles (24 Hours): 183 ng Equivalents [^14C]DAP/g
- Concentration of Radioactivity in Skin (24 Hours): 1073 ng Equivalents [^14C]DAP/g
- Concentration of Radioactivity in Small intestinal contents (24 Hours): 462 ng Equivalents [^14C]DAP/g
- Concentration of Radioactivity in Spleen (24 Hours): 1007 ng Equivalents [^14C]DAP/g
- Concentration of Radioactivity in Stomach (24 Hours): 861 ng Equivalents [^14C]DAP/g
- Concentration of Radioactivity in Testes (24 Hours): 330 ng Equivalents [^14C]DAP/g
- Concentration of Radioactivity in Thyroid gland (24 Hours): 1641 ng Equivalents [^14C]DAP/g
- Concentration of Radioactivity in Vitreous humor (24 Hours): 309 ng Equivalents [^14C]DAP/g
- Concentration of Radioactivity in Adrenal gland (72 Hours): 341 ng Equivalents [^14C]DAP/g
- Concentration of Radioactivity in Cecum contents (72 Hours): 421 ng Equivalents [^14C]DAP/g
- Concentration of Radioactivity in Cerebrum (72 Hours): 182 ng Equivalents [^14C]DAP/g
- Concentration of Radioactivity in Diaphragm (72 Hours): 206 ng Equivalents [^14C]DAP/g
- Concentration of Radioactivity in Exorbital gland (72 Hours): 304 ng Equivalents [^14C]DAP/g
- Concentration of Radioactivity in Fat (brown) (72 Hours): 593 ng Equivalents [^14C]DAP/g
- Concentration of Radioactivity in Fat (white) (72 Hours): 236 ng Equivalents [^14C]DAP/g
- Concentration of Radioactivity in Harderian gland (72 Hours): 458 ng Equivalents [^14C]DAP/g
- Concentration of Radioactivity in Intraorbital gland (72 Hours): 298 ng Equivalents [^14C]DAP/g
- Concentration of Radioactivity in Large intestine (72 Hours): 646 ng Equivalents [^14C]DAP/g
- Concentration of Radioactivity in Liver (72 Hours): 774 ng Equivalents [^14C]DAP/g
- Concentration of Radioactivity in Lung (72 Hours): 545 ng Equivalents [^14C]DAP/g
- Concentration of Radioactivity in Lymph nodes (72 Hours): 550 ng Equivalents [^14C]DAP/g
- Concentration of Radioactivity in Myocardium (72 Hours): 264 ng Equivalents [^14C]DAP/g
- Concentration of Radioactivity in Nasal turbinates (72 Hours): 1204 ng Equivalents [^14C]DAP/g
- Concentration of Radioactivity in Olfactory lobe (72 Hours): 213 ng Equivalents [^14C]DAP/g
- Concentration of Radioactivity in Pancreas (72 Hours): 360 ng Equivalents [^14C]DAP/g
- Concentration of Radioactivity in Pituitary gland (72 Hours): 638 ng Equivalents [^14C]DAP/g
- Concentration of Radioactivity in Preputial gland (72 Hours): 639 ng Equivalents [^14C]DAP/g
- Concentration of Radioactivity in Prostate gland (72 Hours): 4484 ng Equivalents [^14C]DAP/g
- Concentration of Radioactivity in Salivary gland (72 Hours): 487 ng Equivalents [^14C]DAP/g
- Concentration of Radioactivity in Skin (72 Hours): 375 ng Equivalents [^14C]DAP/g
- Concentration of Radioactivity in Small intestinal contents (72 Hours): 320 ng Equivalents [^14C]DAP/g
- Concentration of Radioactivity in Spleen (72 Hours): 408 ng Equivalents [^14C]DAP/g
- Concentration of Radioactivity in Stomach (72 Hours): 473 ng Equivalents [^14C]DAP/g
- Concentration of Radioactivity in Thyroid gland (72 Hours): 510 ng Equivalents [^14C]DAP/g
